No constants are given. Whether binding was seen depends on the method and setting.

Protein sequences, listed by entry. Tags and fused reporters are not part of them. Lines headed by an entry give the natural chain unless they say otherwise; changes in a name come on top.
UniProt P0AG20: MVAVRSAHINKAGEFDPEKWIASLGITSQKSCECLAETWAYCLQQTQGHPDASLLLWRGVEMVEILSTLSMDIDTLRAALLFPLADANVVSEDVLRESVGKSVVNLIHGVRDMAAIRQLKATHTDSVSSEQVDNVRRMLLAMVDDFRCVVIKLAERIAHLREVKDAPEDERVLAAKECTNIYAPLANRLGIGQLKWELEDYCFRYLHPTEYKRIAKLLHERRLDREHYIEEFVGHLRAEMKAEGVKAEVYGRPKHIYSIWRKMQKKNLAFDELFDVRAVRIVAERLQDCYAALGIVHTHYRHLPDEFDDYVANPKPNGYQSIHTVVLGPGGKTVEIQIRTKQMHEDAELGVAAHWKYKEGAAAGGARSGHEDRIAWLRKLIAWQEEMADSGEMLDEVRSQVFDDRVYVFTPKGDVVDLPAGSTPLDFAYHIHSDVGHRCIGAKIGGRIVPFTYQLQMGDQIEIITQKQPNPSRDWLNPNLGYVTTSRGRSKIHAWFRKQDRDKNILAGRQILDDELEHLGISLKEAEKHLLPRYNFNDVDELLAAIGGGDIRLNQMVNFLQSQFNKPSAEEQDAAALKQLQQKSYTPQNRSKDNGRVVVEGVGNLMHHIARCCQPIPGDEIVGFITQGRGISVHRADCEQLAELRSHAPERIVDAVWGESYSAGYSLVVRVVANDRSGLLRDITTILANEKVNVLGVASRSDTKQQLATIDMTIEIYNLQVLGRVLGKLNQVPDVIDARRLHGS

The assay concerns the target YtfK (bacterial two-hybrid fusion) (E. coli) (UniProt P0ADE2). The assay is described as follows: two-hybrid; bacterial two-hybrid (T18 and T25 fragments of B. pertussis adenylate cyclase, pUT18c and pKT25) in cya-deficient E. coli BTH101, 30 °C; X-Gal plates with IPTG and β-galactosidase assay.

On to “N-terminal enzymatic half of RelA (bacterial two-hybrid fusion) (from UniProt P0AG20) (domain or fragment)”, for which the binding result is listed as “no binding”.

The values are drawn from publication PMC6917717.
